Record: PubChem BioAssay AID1671195 (Yale University, 2021)
Assay: 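Knockdowns that increase or decrease uptake of fluorescent LDL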 (primary screen). System: human Huh7 hepatoma cells. Knock-down reagent: siRNA pool against human genes, 18 nM. Timing: about 2 to 2.5 days of knockdown, then 8 h LDL uptake. Challenge: DiI-labelled LDL at 30 µg/ml for 8 h, in lipoprotein-deficient serum medium. Detection: 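Fluorescent LDL signal imaged in cells, scaled to the plate median, robust z-score for each replicate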. Scale: robust z-score: higher = more LDL uptake after knockdown. Hit rule: 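a gene counts as active if at least two replicate z-scores exceed ±2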.
The deposit covers about 22,000 reagents; below is a random part of them. Over the whole deposit, about 1,510 (6.9%) got an active call. 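Active includes knockdowns raising or lowering LDL uptake; positive z-scores mean more uptake, negative mean less.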

| target | robust z-score, replicate 1 | robust z-score, replicate 2 | robust z-score, replicate 3 | Call |
| --- | --- | --- | --- | --- |
| TMC2 (transmembrane channel like 2) | -0.507 | -0.23 | 0.388 | inactive |
| CECR7 (cat eye syndrome chromosome region, candidate 7) | 0.987 | -0.954 | 0.386 | inactive |
| B3GAT1 (beta-1,3-glucuronyltransferase 1) | -0.0541 | 0.225 | 0.0413 | inactive |
| TP53TG1 (TP53 target 1) | 0.488 | -0.567 | 1.09 | inactive |
| PCK1 (phosphoenolpyruvate carboxykinase 1) | -1.09 | 0.0671 | -0.623 | inactive |
| SMAD4 (SMAD family member 4) | -0.744 | -1.24 | -1.48 | inactive |
| SORBS1 (sorbin and SH3 domain containing 1) | 0.399 | 0.195 | -0.812 | inactive |
| TMEM65 (transmembrane protein 65) | 0.0174 | 0.172 | -0.328 | inactive |
| ELSPBP1 (epididymal sperm binding protein 1) | -0.746 | -0.938 | -1.29 | inactive |
| NIPAL4 (NIPA like domain containing 4) | 0.675 | 1.66 | 0.423 | inactive |
| FOXO4 (forkhead box O4) | 2.19 | 1.92 | 1.85 | active |
| MCTP1 (multiple C2 and transmembrane domain containing 1) | -0.2 | 0.248 | -0.136 | inactive |
| NPM1P39 (nucleophosmin 1 pseudogene 39) | 0.59 | 0.359 | 0.297 | inactive |
| ZNF793 (zinc finger protein 793) | -1.54 | -1.66 | -1.29 | inactive |
| RABGAP1 (RAB GTPase activating protein 1) | 0.666 | 0.599 | 2.42 | inactive |
| PADI4 (peptidyl arginine deiminase 4) | -0.0776 | 0.461 | -0.133 | inactive |
| LMCD1-AS1 (LMCD1 antisense RNA 1) | 0.28 | 0.0184 | -0.0716 | inactive |
| C5 (complement C5) | 1.36 | 0.566 | 1.75 | inactive |
| ACTL7B (actin like 7B) | 0.0994 | -0.276 | -0.593 | inactive |
| CD55 (CD55 molecule (Cromer blood group)) | -0.25 | -1.67 | -0.516 | inactive |
| ABCC8 (ATP binding cassette subfamily C member 8) | -1.17 | -1.42 | -0.983 | inactive |
| ECSIT (ECSIT signaling integrator) | 0.233 | 0.721 | 0.352 | inactive |
| MIOS (meiosis regulator for oocyte development) | -0.837 | 0.031 | 0.615 | inactive |
| TRIM64 (tripartite motif containing 64) | 0.275 | 0.786 | 0.891 | inactive |
| CEP170 (centrosomal protein 170) | 1.13 | 1.59 | -0.253 | inactive |
| FAU (FAU ubiquitin like and ribosomal protein S30 fusion) | -0.473 | 1.04 | 0.0224 | inactive |
| DYNLT3 (dynein light chain Tctex-type 3) | 0.00228 | -0.366 | -0.263 | inactive |
| BOLA3 (bolA family member 3) | -0.238 | -0.664 | -0.369 | inactive |

Active calls, among the entries above:
| target | robust z-score, replicate 1 | robust z-score, replicate 2 | robust z-score, replicate 3 | Call |
| --- | --- | --- | --- | --- |
| FOXO4 (forkhead box O4) | 2.19 | 1.92 | 1.85 | active |
